± gives the standard deviation. The entries are a selection whose mix differs from that of the whole data set. Many entries were measured with a wide error. Some of the results follow.
Tests used:
[1] = tested on: MIWI (PIWIL1) piRISC loaded with L1MC piRNA (30 nt); assay: pre-steady-state target cleavage rate (min^-1); higher = faster piRNA-guided slicing of the target; conditions: guide: L1MC piRNA 5'p-UAACUAAAUACUAUGCAAGCUGUAGGUCCU;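 note: 1 nM active piRISC with 0.1 nM target library at 33 °C single turnover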
Summary of the method: (§1)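 For Cleave-'n-Seq, a transcribed, DNA-blocked target RNA library […] met 1 nM active affinity-purified piRISC with one synthetic guide at 33 °C for 0–8 or 0–960 min in HEPES–potassium acetate buffer, with or without 500 nM GTSF1 partner protein. Uncleaved targets were sequenced and normalised to depth and weakly complementary targets, with three trials pooled and k3 capped at 0.0001 min^-1. A burst-and-steady-state fit supplied the pre-steady-state cleavage rate.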

[2] = tested on: EfPiwi piRISC loaded with L1MC piRNA (26 nt); assay: pre-steady-state target cleavage rate (min^-1); guide: L1MC piRNA 5'p-UAACUAAAUACUAUGCAAGCUGUAGG; MIWI and MILI are mouse PIWI proteins and EfPiwi is from a freshwater sponge; tags in brackets are library labels; higher = faster piRNA-guided slicing of the target; conditions: auxiliary factor: 500 nM Ephydatia muelleri Gtsf1
Summary of the method: as §1

[3] = auxiliary factor: none (no GTSF1)

Row | Sequence | pre-steady-state target cleavage rate [1, 3] | pre-steady-state target cleavage rate [2] | pre-steady-state target cleavage rate ([1]; auxiliary factor: 500 nM mouse GTSF1)
1 | UCCUGGAUGUCGUUGCAUAGAAAUUAGUUA | 0.000928 ± 0.0075 | 0.00142 ± 0.0063 | 
2 | UCCUGGAUGUGCUUCCUUAGUAUUUAGUUA | 0.000862 ± 0.0078 | 0.00175 ± 0.0044 | 0.00203 ± 0.0073
3 | UCCUGGAUGUCGAACCAUAUGUAUUUAGUUA | 0.000268 ± 0.029 | 0.000252 ± 0.023 | 

Source: the supplement of paper PMC10338343
